{"source": "paper PMC13389011", "key": {"[1]": {"system": "Human insulin receptor isoform A, native (IM-9 cells) (Homo sapiens)", "test": "competition with 125I-insulin", "details": "HEPES binding buffer, 15 C; phenyl-dU (rigid) and indole-dA (flexible) after nt 20; IB: PBS (1.5 mM KH2PO4, 8.1 mM Na2HPO4, 2.7 mM KCl, 137 mM NaCl) + 5 mM MgCl2, pH 7.4; FNBA and BLI r.t.; protein on the cell surface; label: 5'-Cy5; synthetic backbone"}, "CPA protein": {"system": "CPA protein", "test": "FNBA", "details": "IB: PBS (1.5 mM KH2PO4, 8.1 mM Na2HPO4, 2.7 mM KCl, 137 mM NaCl) + 5 mM MgCl2, pH 7.4, FNBA and BLI r.t., recombinant protein, protein details: His-tag, synthetic backbone"}, "[2]": {"system": "Dog insulin receptor ectodomain (DIR) (dog)", "test": "MST", "details": "DNA backbone; 7-deaza-7-(indolyl-ethyl)-dA (dAAIn) at 26,32,34,38,41,44,45,48,49,50; 5-(phenyl-ethynyl)-dU (dUEPh) at 21,22,24,27,37,47,54; PBS (1.5 mM KH2PO4, 8.1 mM Na2HPO4, 2.7 mM KCl, 137 mM NaCl) with 5 mM MgCl2, pH 7.4; MST with 0.1% Pluronic F-127 at 25 C; FNBA at room temperature; commercial protein; protein details: His-tag; label: 5'-Cy5; synthetic backbone; letters put together from the description"}, "[3]": {"system": "Human insulin receptor ectodomain (HIR) (Homo sapiens)", "test": "MST", "details": "DNA backbone; 7-deaza-7-(indolyl-ethyl)-dA (dAAIn) at 26,32,34,38,41,44,45,48,49,50; 5-(phenyl-ethynyl)-dU (dUEPh) at 21,22,24,27,37,47,54; PBS (1.5 mM KH2PO4, 8.1 mM Na2HPO4, 2.7 mM KCl, 137 mM NaCl) with 5 mM MgCl2, pH 7.4; MST with 0.1% Pluronic F-127 at 25 C; FNBA at room temperature; commercial protein; protein details: His-tag; label: 5'-Cy5; synthetic backbone; letters put together from the description"}}, "note": "For at least one entry, the source does not settle the construct or the ends of the probe. For some assays here: A negative result means that nothing was seen under these conditions. For some assays here: At least one verdict was read from the data and is not stated in words by the source. For some assays here: Where cells or extracts were used, other partners may take part.", "data": [{"sequence": "ACTGCACCTGGCCTTTAACTUUUCGCACGCGUUGAAUACUACCAUUGAGUCGUAG [HIR_SC]", "values": [{"measurement": "binding result", "setting": "[1]", "value": "no binding"}]}, {"sequence": "CATGACGCTCACTGTATCTCGCGUUUAACGUAACAGCGAUGUCUCUCAUGAUGUC [HIR-6]", "values": [{"measurement": "binding result", "setting": "CPA protein; after primer nt 1-20 every U = rigidly linked phenyl-dU and every A = flexibly linked indole-dA (nucleotides 1,2), DNA backbone, label: 5'-Cy5 (FNBA, MST), 5'-biotin (SPR, BLI)", "value": "no binding"}]}, {"sequence": "CATGACGCTCACTGTATCTCGCCUUUAACGUAAGAGCGAUGUCUCUCAUGAUGUC [HIR-8]", "values": [{"measurement": "binding result", "setting": "CPA protein; as HIR-6: phenyl-dU (rigid) and indole-dA (flexible) after nt 20, label: 5'-Cy5", "value": "no binding"}]}, {"sequence": "CAACTTCTACCGGTCCATGTUUGUGAUGCCGACAGCUAGCAGCAAGUAAACGGUC [DIR-5]", "values": [{"measurement": "Kd", "setting": "[2]", "value": 0.0192, "unit": "µM"}, {"measurement": "Kd", "setting": "[3]", "value": 0.0748, "unit": "µM"}]}]}
